Results are given in words; binding and its absence hold for the method and conditions named. Some results given as binding are weak or reduced against the parent protein; the word gives no strength.
Molecular target: endogenous LAMP2A (lysosome-associated membrane protein 2 A) (mouse (endogenous in SN4741)) (UniProt P17047)
Assay: native gel or EMSA; lysosomes or lysosomal membrane purified from SN4741 cells (untreated, Tg, Tg with SB203580, 6-OHDA, PERK inhibitor GSK2606414); continuous native PAGE, 6% polyacrylamide, no SDS, no boiling, non-reducing loading buffer; immunoblot for LAMP2A

binding: binds
B1: endogenous LAMP2A (lysosome-associated membrane protein 2 A) (receptor, UniProt P17047-1 26-415)
chain: LIVNLTDSKGTCLYAEWEMNFTITYETTNQTNKTITIAVPDKATHDGSSCGDDRNSAKIMIQFGFAVSWAVNFTKEASHYSIHDIVLSYNTSDSTVFPGAVAKGVHTVKNPENFKVPLDVIFKCNSVLTYNLTPVVQKYWGIHLQAFVQNGTVSKNEQVCEEDQTPTTVAPIIHTTAPSTTTTLTPTSTPTPTPTPTPTVGNYSIRNGNTTCLLATMGLQLNITEEKVPFIFNINPATTNFTGSCQPQSAQLRLNNSQIKYLDFIFAVKNEKRFYLKEVNVYMYLANGSAFNISNKNLSFWDAPLGSSYMCNKEQVLSVSRAFQINTFNLKVQPFNVTKGQYSTAQDCSADEDNFLVPIAVGAALGGVLILVLLAYFIGLKRHHTGYEQF

— PMC5701254
